Assay results taken from patent EP3046573B1 (Zealand Pharma A/S, priority 2013, dated 2015).
HELM strings list residues between dots; [ac] is acetyl, [am] amide, other brackets name non-standard units.

What was measured:
[1] = general procedure: Fmoc solid-phase peptide synthesis; Tentagel S PHB-Thr(tBu) resin; COMU; details: whole synthesis, analytical HPLC and MS, scale of the general procedure 1 g resin, 0.25 mmol/g
[2] = general procedure: Fmoc solid-phase peptide synthesis; TentaGel S Ram resin (0.25 mmol/g); Tentagel S PHB-Thr(tBu) resin (0.24 mmol/g) for Compound 5; COMU; details: analytical HPLC and MS

## PEPTIDE1{[19CD].[gE].A.[Cx].N.T.A.T.[Cx].A.T.Q.R.L.A.E.F.L.H.H.S.S.N.N.F.[Sar].A.[NMeI].L.S.S.T.N.V.G.S.N.T.P.[am]}$PEPTIDE1,PEPTIDE1,4:R3-9:R3$$$V2.0
[1]
  final HPLC purity: 90%

## PEPTIDE1{[19CD].[gE].R.[Cx].N.T.A.T.[Cx].A.T.Q.R.[DLeu].A.E.F.L.H.H.S.S.N.N.F.[Sar].A.[NMeI].L.S.S.T.N.V.G.S.N.T.P.[am]}$PEPTIDE1,PEPTIDE1,4:R3-9:R3$$$V2.0
[2]; whole synthesis, scale of the general procedure 1 g resin, 0.25 mmol/g
  final HPLC purity: 80%

## PEPTIDE1{[19CD].[gE].[Har].[Cx].N.T.A.T.[Cx].A.T.Q.R.L.A.E.F.L.H.H.S.S.N.N.F.[Sar].A.[NMeI].L.S.S.T.N.V.G.S.N.T.P.[am]}$PEPTIDE1,PEPTIDE1,4:R3-9:R3$$$V2.0
[2]; late stage modification step
  final purity (method not given): 90%
